What was measured:
[1] = test system: pediatric subjects with acute hypoxemic respiratory failure (AHRF); test: Pediatric AHRF study: respiratory values (oxygen status, HFOV, CMV, ABG); type: in vivo, human; settings: 5 ppm
Experimental: Standardized ventilatory management and weaning procedures were used. Ventilatory management was used based on an “open lung approach” using positive end-expiratory pressure (PEEP) to increase lung volume and limiting tidal volumes to reduce plateau pressures. Subjects received nitric oxide for inhalation at 5 ppm or placebo (100% Grade 5 nitrogen gas) into the inspiratory limb of the ventilator circuit using a blinded version of the INOvent® delivery system. The subjects were treated until Day 28 or extubation, whichever occurred first. Subjects were assessed daily using a spontaneous breathing trial, according to the institution's standard of care. Arterial blood gases (ABG), ventilator settings, methemoglobin, oxygenation index, systolic blood pressure, diastolic blood pressure, Pediatric Risk of Mortality (PRISM) III score, and subject positioning (prone or supine) were performed/recorded at specified times during the study. Selected centers also performed plasma cytokine assays, bronchoalveolar lavage fluid (BALF) assays, and a 6-month follow-up assessment.
The following assessments were made at baseline: arterial blood gases, ventilator settings, methemoglobin, prone position, PRISM III score, oxygenation index, systolic and diastolic blood pressure, bronchoalveolar lavage fluid assay and plasma cytokine.
The following assessments were made at 4 hours±1 hour after the start of therapy: arterial blood gases, ventilator settings and methemoglobin.
The following assessments were made at 12 hours±2 hours after the start of therapy: arterial blood gases and ventilator settings.
The following assessments were made at 24 hours±2 hours after the start of therapy: arterial blood gases, ventilator settings, methemoglobin, systolic and diastolic blood pressure and plasma cytokine.
Oxygen status was determined at screening only. Respiratory values in the HFOV category were obtained at baseline, 4 hours, 12 hours, and 24 hours. Respiratory values in the categories conventional mechanical ventilation [CMV] and ABG were obtained at baseline, 4 hours, 12 hours, 24 hours, and at extubation.

[2] = test system: patients with moderately severe Acute Lung Injury (ALI); test: Adult ALI/ARDS study, 5 ppm iNO versus placebo: efficacy and respiratory parameters; type: in vivo, human; settings: over the length of mechanical ventilation
Experimental: A large-scale, randomized, blinded, placebo-controlled study was carried out in the Intensive Care Units (ICUs) of 46 US hospitals to evaluate the efficacy of low-dose (5 ppm) iNO in 385 patients with moderately severe Acute Lung Injury (ALI). The primary endpoint of this study was number of days alive and off assisted breathing.
Patients had acute lung injury (ALI), defined by a modification of American-European Consensus Conference criteria (PaO2/inspired oxygen concentration [FiO2] ratio of ≤250 mm Hg), due to causes other than severe sepsis. Patients with evidence of non-pulmonary system failure at the time of randomization and sepsis-induced ARDS were excluded. […]
All patients using the iNO delivery system received mechanical ventilatory support. […] Increments of upward titration were determined by the clinician, based on degree of arterial desaturation.
Baseline oxygenation measures included PaO2, arterial partial pressure of CO2 (PaCO2), SpO2, FiO2, PEEP, PaO2/FiO2 ratio, […], tidal volume, and mean airway pressure. Respiratory parameters (FiO2, PEEP, and PaO2/FiO2 ratio) were recorded on case report forms every 12 hours during mechanical ventilation. […]

SMILES: [N]=O [Nitric Oxide, nitric oxide]
- CMV FiO2, Mean (SD) ([1]; 4 Hours): 63.9 (20.0) %
- CMV FiO2, Median ([1]; 4 Hours): 60.0%
- CMV Inspiratory Time, Mean (SD) ([1]; 4 Hours): 0.8 (0.2) s
- CMV Inspiratory Time, Median ([1]; 4 Hours): 0.8 s
- CMV MAP, Mean (SD) ([1]; 4 Hours): 17.0 (3.5) cmH2O
- CMV MAP, Median ([1]; 4 Hours): 17.5 cmH2O
- CMV PEEP, Mean (SD) ([1]; 4 Hours): 10.7 (3.2) cmH2O
- CMV PEEP, Median ([1]; 4 Hours): 10.5 cmH2O
- CMV Pplat, Mean (SD) ([1]; 4 Hours): 29.0 (2.0) cmH2O
- CMV Pplat, Median ([1]; 4 Hours): 29.0 cmH2O
- CMV Rate, Mean (SD) ([1]; 4 Hours): 25.5 (5.9) /min
- CMV Rate, Median ([1]; 4 Hours): 27.0 min⁻¹
- CMV Set Vt, Mean (SD) ([1]; 4 Hours): 131.3 (82.9) mL
- CMV Set Vt, Median ([1]; 4 Hours): 110.0 mL
- HFOV FiO2, Mean (SD) ([1]; 4 Hours): 52.9 (27.3) %
- HFOV FiO2, Median ([1]; 4 Hours): 40.0%
- HFOV Hertz, Mean (SD) ([1]; 4 Hours): 7.4 (1.9) min
- HFOV Hertz, Median ([1]; 4 Hours): 7.0 min
- HFOV Inspiratory Time, Mean (SD) ([1]; 4 Hours): 5.0 (12.4) s
- HFOV Inspiratory Time, Median ([1]; 4 Hours): 0.3 s
- HFOV MAP, Mean (SD) ([1]; 4 Hours): 26.6 (4.7) cmH2O
- HFOV MAP, Median ([1]; 4 Hours): 25.0 cmH2O
- HFOV delta P, Mean (SD) ([1]; 4 Hours): 48.0 (15.5) cmH2O
- HFOV delta P, Median ([1]; 4 Hours): 45.5 cmH2O
- CMV FiO2, Mean (SD) ([1]; 12 Hours): 59.0 (18.9) %
- CMV FiO2, Median ([1]; 12 Hours): 55.0%
- CMV Inspiratory Time, Mean (SD) ([1]; 12 Hours): 0.8 (0.2) s
- CMV Inspiratory Time, Median ([1]; 12 Hours): 0.8 s
- CMV MAP, Mean (SD) ([1]; 12 Hours): 16.7 (3.8) cmH2O
- CMV MAP, Median ([1]; 12 Hours): 18.0 cmH2O
- CMV PEEP, Mean (SD) ([1]; 12 Hours): 10.6 (3.2) cmH2O
- CMV PEEP, Median ([1]; 12 Hours): 10.0 cmH2O
- CMV Pplat, Mean (SD) ([1]; 12 Hours): 25.8 (6.7) cmH2O
- CMV Pplat, Median ([1]; 12 Hours): 28.0 cmH2O
- CMV Rate, Mean (SD) ([1]; 12 Hours): 24.5 (5.7) /min
- CMV Rate, Median ([1]; 12 Hours): 25.0 min⁻¹
- CMV Set Vt, Mean (SD) ([1]; 12 Hours): 126.5 (89.2) mL
- CMV Set Vt, Median ([1]; 12 Hours): 100.0 mL
- HFOV FiO2, Mean (SD) ([1]; 12 Hours): 43.8 (16.0) %
- HFOV FiO2, Median ([1]; 12 Hours): 42.5%
- HFOV Hertz, Mean (SD) ([1]; 12 Hours): 7.9 (1.6) min
- HFOV Hertz, Median ([1]; 12 Hours): 7.5 min
- HFOV Inspiratory Time, Mean (SD) ([1]; 12 Hours): 4.4 (11.6) s
- HFOV Inspiratory Time, Median ([1]; 12 Hours): 0.3 s
- HFOV MAP, Mean (SD) ([1]; 12 Hours): 25.5 (5.2) cmH2O
- HFOV MAP, Median ([1]; 12 Hours): 23.9 cmH2O
- HFOV delta P, Mean (SD) ([1]; 12 Hours): 46.1 (14.3) cmH2O
- HFOV delta P, Median ([1]; 12 Hours): 36.0 cmH2O
- CMV FiO2, Mean (SD) ([1]; 24 Hours): 58.1 (16.6) %
- CMV FiO2, Median ([1]; 24 Hours): 55.0%
- CMV Inspiratory Time, Mean (SD) ([1]; 24 Hours): 0.8 (0.2) s
- CMV Inspiratory Time, Median ([1]; 24 Hours): 0.8 s
- CMV MAP, Mean (SD) ([1]; 24 Hours): 16.0 (3.9) cmH2O
- CMV MAP, Median ([1]; 24 Hours): 15.5 cmH2O
- CMV PEEP, Mean (SD) ([1]; 24 Hours): 9.8 (2.9) cmH2O
- CMV PEEP, Median ([1]; 24 Hours): 10.0 cmH2O
- CMV Pplat, Mean (SD) ([1]; 24 Hours): 30.0 (4.6) cmH2O
- CMV Pplat, Median ([1]; 24 Hours): 29.0 cmH2O
- CMV Rate, Mean (SD) ([1]; 24 Hours): 25.0 (6.6) /min
- CMV Rate, Median ([1]; 24 Hours): 25.5 min⁻¹
- CMV Set Vt, Mean (SD) ([1]; 24 Hours): 123.3 (86.4) mL
- CMV Set Vt, Median ([1]; 24 Hours): 100.0 mL
- HFOV FiO2, Mean (SD) ([1]; 24 Hours): 44.0 (20.4) %
- HFOV FiO2, Median ([1]; 24 Hours): 35.0%
- HFOV Hertz, Mean (SD) ([1]; 24 Hours): 8.3 (1.9) min
- HFOV Hertz, Median ([1]; 24 Hours): 8.0 min
- HFOV Inspiratory Time, Mean (SD) ([1]; 24 Hours): 6.8 (14.6) s
- HFOV Inspiratory Time, Median ([1]; 24 Hours): 0.3 s
- HFOV MAP, Mean (SD) ([1]; 24 Hours): 25.2 (4.2) cmH2O
- HFOV MAP, Median ([1]; 24 Hours): 24.0 cmH2O
- HFOV delta P, Mean (SD) ([1]; 24 Hours): 41.3 (12.2) cmH2O
- HFOV delta P, Median ([1]; 24 Hours): 38.5 cmH2O
- CMV FiO2, Mean (SD) ([1]; Extubation Criteria): 38.1 (12.5) %
- CMV FiO2, Median ([1]; Extubation Criteria): 40.0%
- CMV Inspiratory Time, Mean (SD) ([1]; Extubation Criteria): 0.8 (0.1) s
- CMV Inspiratory Time, Median ([1]; Extubation Criteria): 0.8 s
- CMV MAP, Mean (SD) ([1]; Extubation Criteria): 10.2 (2.3) cmH2O
- CMV MAP, Median ([1]; Extubation Criteria): 10.0 cmH2O
- CMV PEEP, Mean (SD) ([1]; Extubation Criteria): 5.8 (0.7) cmH2O
- CMV PEEP, Median ([1]; Extubation Criteria): 6.0 cmH2O
- CMV Pplat, Mean (SD) ([1]; Extubation Criteria): 21.0 (6.2) cmH2O
- CMV Pplat, Median ([1]; Extubation Criteria): 19.0 cmH2O
- CMV Rate, Mean (SD) ([1]; Extubation Criteria): 16.3 (7.9) /min
- CMV Rate, Median ([1]; Extubation Criteria): 15.5 min⁻¹
- CMV Set Vt, Mean (SD) ([1]; Extubation Criteria): 106.9 (33.6) mL
- CMV Set Vt, Median ([1]; Extubation Criteria): 109.5 mL
- cumulative exposure to FiO2, PEEP and PaO2/FiO2 ratio versus placebo [2]: less cumulative exposure
